Assay results as given in US10196362B2, “Carbamate compound and use thereof” (SUMITOMO CHEMICAL COMPANY, LIMITED, priority 2015, dated 2019).
Some of these results come from one statement about several compounds together. For part of these data: At least one structure is not confirmed: it was looked up by name or label, or the drawing left a doubt.

Legend:
[1] = system: wheat leaf blight fungus (Septoria tritici); assay: Test Example 8: titer plate growth test of wheat leaf blight fungus, absorbance at 550 nm; format: cell-based; details: 150 ppm DMSO dilution, 1 μl plus 150 μl culture medium, 18° C., 4 days
[2] = system: kidney bean stem rot fungus (Sclerotinia sclerotiorum); assay: Test Example 4: kidney bean stem rot, foliar spray pot test; format: in vivo; details: kidney bean (Nagauzura Saitou), 500 ppm foliar spray, Formulation Example 6, four days after inoculation
[3] = system: wheat speckled leaf blotch fungus (Septoria tritici); assay: Test Example 5: wheat speckled leaf blotch, foliar spray pot test; format: in vivo; details: wheat (Apogee), 500 ppm foliar spray, Formulation Example 6, inoculated after 4 days
[4] = system: soybean rust (Phakopsora pachyrhizi); assay: Test Example 7: soybean rust, foliar spray pot test; format: in vivo; details: soybean (Kurosengoku), 200 ppm foliar spray, Formulation Example 6, inoculated after 4 days

SMILES | Controlling effect (%)=100×(A−B)/A [1] | area of the lesion on treated plant relative to untreated plant [2] | area of the lesion on treated plant relative to untreated plant [3] | area of the lesion on treated plant relative to untreated plant [4]
COC(=O)Nc1ccccc1COc1ccc(-n2cccn2)cc1 [methyl N-(2-{[4-(1H-pyrazol-1-yl)phenoxy)methyl}phenyl)carbamate, reference compound] | ≤ 30% | – | – | –
COC(=O)Nc1cccc(C)c1COc1ccc(-n2cc(C)c(C)n2)cc1C [Compound 5] | ≥ 70% | ≤ 30% | ≤ 30% | ≤ 30%
COC(=O)N(OC)c1ccccc1COc1ccc(-n2nc(C)cc2C)cc1C [methyl N-(2-{[2-methyl-4-(3,5-dimethyl-1H-pyrazol-1-yl)phenoxy]methyl}phenyl)-N-methoxy carbamate, reference compound] | ≤ 30% | – | – | –
